# Data: patent US9382306B2, “Octapeptide compounds derived from somatostatin and the therapeutic use thereof” (IPSEN PHARMA S.A.S., priority 2008, dated 2016)
# For at least one compound, name, drawing or mass did not settle the structure.
# Assay: Self-assembly study: putting peptides in solution in water, macroscopic, ATR-FTIR, TEM and SAXS analysis
# Format: physicochemical
# Conditions: 3 to 15% by mass of peptide in water; form and diameter of the self-assembled structure, or soluble / insoluble
# Description: The procedure used comprises three stages: putting the peptides in solution and macroscopic analysis; spectroscopic and microscopic analyses of the structures formed and by small-angle X-ray scattering (SAXS) analyses.
# The first stage of the characterization of the derivatives is the production of a range of concentrations from 3 to 15% by mass of peptide in water. Gelling of the solution indicates the presence of self-assembled structures which can be nanotubes but can also be fibres or other self-organised structures.
# The object of this stage is to verify the presence of self-assembled structures, to characterize their self-assembly and to visualize them by microscopy.
# Infrared spectroscopy makes it possible to obtain information on the method of stacking the peptides in the self-assemblies. […] The beam penetrates a few microns into the sample deposited on the crystal, which means that only the molecules/structures which are deposited on the surface of the crystal are analyzed. […]
# The samples, liquids or gels, are introduced into a capillary column and subjected to a monochromatic flow of X-rays. The intensity diffused is measured as a function of the scattering angle with respect to the incident angle. […]
structure (smiles),measurement,value
"CC(C)[C@@H]1NC(=O)[C@H](CCCCN)NC(=O)[C@@H](Cc2ccc3ccccc3c2)NC(=O)[C@H](Cc2ccc(O)cc2)NC(=O)[C@@H](NC(=O)[C@H](N)Cc2ccc3ccccc3c2)CSSC[C@@H](C(=O)N[C@H](C(N)=O)C(C)O)NC1=O (stereo partly drawn) [Example 7, H-D-2-Nal^1-cyclo(Cys^2-Tyr^3-β-(2-naphthyl)-D-Ala^4-Lys^5-Val^6-Cys^7)-Thr^8-NH2.2 CH3COOH]",Assembly,insoluble
